Laboratory results: PubChem BioAssay AID743121 (NCATS, 2013)
Test: 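Partners whose loss is lethal together with topoisomerase I blockade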 (primary screen). Cell system: MDA-MB-231 cells, a human breast cancer line. Reagent: single siRNA against human genes, 20 nM siRNA (0.8 pmol per well). Timing: 120 h (drug added 48 h after transfection, read 72 h later). Challenge: camptothecin 20 nM (about EC30) for 72 h; vehicle 0.1% DMSO in parallel plates. Read-out: 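CellTiter-Glo ATP signal, scaled to control siRNA as percent viability; sensitisation given as log2 of untreated divided by camptothecin-treated viability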. Reading the numbers: log2 vehicle/camptothecin viability: higher = stronger sensitisation to camptothecin; viability with camptothecin: higher = more viable cells. Units: viability with camptothecin in % of control. Active means: 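Each gene scored by redundant siRNA activity (RSA) over its individual siRNA ratios; a gene is called active at p < 0.001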.
Here is one part, drawn at random, of about 26,000 reagents tested. 167 of all reagents (0.63%) were called active. 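Calls are per gene from RSA p-values that are not deposited; an individual active-marked siRNA can sensitise only weakly.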 Reagents against one gene are numbered here. Further read-outs or replicates are left out here. Reagent sequences are not shown.

How did the screen score PPFIA3 (PPFI scaffold protein A3) #1?
log2 vehicle/camptothecin viability: -0.00115; viability with camptothecin: 56.6; activity call: inactive

For PPFIA3 (PPFI scaffold protein A3) #2, what does the deposit list?
log2 vehicle/camptothecin viability: 0.312; viability with camptothecin: 51.8; activity call: inactive

What is on record for PPFIA3 (PPFI scaffold protein A3) #3?
log2 vehicle/camptothecin viability: -0.246; viability with camptothecin: 93; activity call: inactive

With PPFIA3 (PPFI scaffold protein A3) #4, what was measured?
log2 vehicle/camptothecin viability: -0.408; viability with camptothecin: 117; activity call: inactive

Which result is listed for GPIHBP1 #1?
log2 vehicle/camptothecin viability: -0.277; viability with camptothecin: 90.9; activity call: inactive

Which result is listed for GPIHBP1 #2?
log2 vehicle/camptothecin viability: -0.247; viability with camptothecin: 28.8; activity call: inactive

What is on record for GPIHBP1 #3?
log2 vehicle/camptothecin viability: -0.152; viability with camptothecin: 12.9; activity call: inactive

Which result is listed for GPIHBP1 #4?
log2 vehicle/camptothecin viability: -0.305; viability with camptothecin: 93.7; activity call: inactive

How did the screen score WT1-AS (WT1 antisense RNA) #1?
log2 vehicle/camptothecin viability: 0.0183; viability with camptothecin: 109; activity call: inactive

Which result is listed for WT1-AS (WT1 antisense RNA) #2?
log2 vehicle/camptothecin viability: 0.00401; viability with camptothecin: 41.1; activity call: inactive

For WT1-AS (WT1 antisense RNA) #3, what was measured?
log2 vehicle/camptothecin viability: -0.148; viability with camptothecin: 83; activity call: inactive

With WT1-AS (WT1 antisense RNA) #4, what was measured?
log2 vehicle/camptothecin viability: -0.738; viability with camptothecin: 85.1; activity call: inactive

With HTR3E (5-hydroxytryptamine receptor 3E) #1, what was measured?
log2 vehicle/camptothecin viability: -0.416; viability with camptothecin: 58.3; activity call: inactive

For HTR3E (5-hydroxytryptamine receptor 3E) #2, how do the results read?
log2 vehicle/camptothecin viability: 0.329; viability with camptothecin: 69.7; activity call: inactive

Which result is listed for HTR3E (5-hydroxytryptamine receptor 3E) #3?
log2 vehicle/camptothecin viability: 0.0668; viability with camptothecin: 97.5; activity call: inactive

With HTR3E (5-hydroxytryptamine receptor 3E) #4, what does the deposit list?
log2 vehicle/camptothecin viability: -0.547; viability with camptothecin: 75.5; activity call: inactive

With CAVIN3 (caveolae associated protein 3) #1, how do the results read?
log2 vehicle/camptothecin viability: -0.079; viability with camptothecin: 69.1; activity call: inactive

How did the screen score CAVIN3 (caveolae associated protein 3) #2?
log2 vehicle/camptothecin viability: -0.383; viability with camptothecin: 86; activity call: inactive

With CAVIN3 (caveolae associated protein 3) #3, what does the deposit list?
log2 vehicle/camptothecin viability: 0.0778; viability with camptothecin: 32.4; activity call: inactive

For CAVIN3 (caveolae associated protein 3) #4, what does the deposit list?
log2 vehicle/camptothecin viability: -0.422; viability with camptothecin: 59.5; activity call: inactive

How did the screen score RAB5A (RAB5A, member RAS oncogene family) #1?
log2 vehicle/camptothecin viability: 0.244; viability with camptothecin: 81.4; activity call: inactive

What did the screen give for RAB5A (RAB5A, member RAS oncogene family) #2?
log2 vehicle/camptothecin viability: -0.336; viability with camptothecin: 65; activity call: inactive

What did the screen give for RAB5A (RAB5A, member RAS oncogene family) #3?
log2 vehicle/camptothecin viability: -0.0551; viability with camptothecin: 41.6; activity call: inactive

Which result is listed for MILR1 (mast cell immunoglobulin like receptor 1) #1?
log2 vehicle/camptothecin viability: -0.433; viability with camptothecin: 78.7; activity call: inactive

With MILR1 (mast cell immunoglobulin like receptor 1) #2, what was measured?
log2 vehicle/camptothecin viability: -0.155; viability with camptothecin: 78; activity call: inactive

With MILR1 (mast cell immunoglobulin like receptor 1) #3, what was measured?
log2 vehicle/camptothecin viability: -0.322; viability with camptothecin: 89.7; activity call: inactive

What did the screen give for SETD1B (SET domain containing 1B, histone lysine methyltransferase) #1?
log2 vehicle/camptothecin viability: 0.0108; viability with camptothecin: 106; activity call: inactive

How did the screen score SETD1B (SET domain containing 1B, histone lysine methyltransferase) #2?
log2 vehicle/camptothecin viability: 0.235; viability with camptothecin: 75.9; activity call: inactive

What is on record for SETD1B (SET domain containing 1B, histone lysine methyltransferase) #3?
log2 vehicle/camptothecin viability: -0.308; viability with camptothecin: 70.6; activity call: inactive

With SETD1B (SET domain containing 1B, histone lysine methyltransferase) #4, what was measured?
log2 vehicle/camptothecin viability: -0.22; viability with camptothecin: 86.8; activity call: inactive

What did the screen give for GPR34 (G protein-coupled receptor 34) #1?
log2 vehicle/camptothecin viability: -0.0239; viability with camptothecin: 61.4; activity call: inactive

What did the screen give for GPR34 (G protein-coupled receptor 34) #2?
log2 vehicle/camptothecin viability: 0.371; viability with camptothecin: 62.6; activity call: inactive

For GPR34 (G protein-coupled receptor 34) #3, what does the deposit list?
log2 vehicle/camptothecin viability: 0.0281; viability with camptothecin: 105; activity call: inactive

What did the screen give for GPR34 (G protein-coupled receptor 34) #4?
log2 vehicle/camptothecin viability: 0.634; viability with camptothecin: 36.7; activity call: inactive

For PKN3 (protein kinase N3) #1, what was measured?
log2 vehicle/camptothecin viability: -0.139; viability with camptothecin: 117; activity call: inactive

Which result is listed for PKN3 (protein kinase N3) #2?
log2 vehicle/camptothecin viability: 0.143; viability with camptothecin: 110; activity call: inactive

With PKN3 (protein kinase N3) #3, what does the deposit list?
log2 vehicle/camptothecin viability: -0.0526; viability with camptothecin: 102; activity call: inactive

With PKN3 (protein kinase N3) #4, what was measured?
log2 vehicle/camptothecin viability: -0.00248; viability with camptothecin: 72.9; activity call: inactive

With GPRASP2 (G protein-coupled receptor associated sorting protein 2) #1, how do the results read?
log2 vehicle/camptothecin viability: -0.0766; viability with camptothecin: 120; activity call: inactive

With GPRASP2 (G protein-coupled receptor associated sorting protein 2) #2, what does the deposit list?
log2 vehicle/camptothecin viability: 0.428; viability with camptothecin: 36.9; activity call: inactive

What did the screen give for GPRASP2 (G protein-coupled receptor associated sorting protein 2) #3?
log2 vehicle/camptothecin viability: -0.14; viability with camptothecin: 102; activity call: inactive

What is on record for GPRASP2 (G protein-coupled receptor associated sorting protein 2) #4?
log2 vehicle/camptothecin viability: -0.184; viability with camptothecin: 82.2; activity call: inactive

How did the screen score G2E3 (G2/M-phase specific E3 ubiquitin protein ligase) #1?
log2 vehicle/camptothecin viability: 0.00874; viability with camptothecin: 90.9; activity call: inactive

How did the screen score G2E3 (G2/M-phase specific E3 ubiquitin protein ligase) #2?
log2 vehicle/camptothecin viability: -0.141; viability with camptothecin: 92.7; activity call: inactive

What is on record for G2E3 (G2/M-phase specific E3 ubiquitin protein ligase) #3?
log2 vehicle/camptothecin viability: 0.986; viability with camptothecin: 11.9; activity call: inactive

For G2E3 (G2/M-phase specific E3 ubiquitin protein ligase) #4, what was measured?
log2 vehicle/camptothecin viability: 0.295; viability with camptothecin: 69.7; activity call: inactive

Sorted by “viability with camptothecin” (descending): 7 of the entries above.
GPRASP2 (G protein-coupled receptor associated sorting protein 2) #3 | log2 vehicle/camptothecin viability = -0.14; viability with camptothecin = 102; activity call = inactive
G2E3 (G2/M-phase specific E3 ubiquitin protein ligase) #2 | log2 vehicle/camptothecin viability = -0.141; viability with camptothecin = 92.7; activity call = inactive
G2E3 (G2/M-phase specific E3 ubiquitin protein ligase) #1 | log2 vehicle/camptothecin viability = 0.00874; viability with camptothecin = 90.9; activity call = inactive
GPRASP2 (G protein-coupled receptor associated sorting protein 2) #4 | log2 vehicle/camptothecin viability = -0.184; viability with camptothecin = 82.2; activity call = inactive
G2E3 (G2/M-phase specific E3 ubiquitin protein ligase) #4 | log2 vehicle/camptothecin viability = 0.295; viability with camptothecin = 69.7; activity call = inactive
GPRASP2 (G protein-coupled receptor associated sorting protein 2) #2 | log2 vehicle/camptothecin viability = 0.428; viability with camptothecin = 36.9; activity call = inactive
G2E3 (G2/M-phase specific E3 ubiquitin protein ligase) #3 | log2 vehicle/camptothecin viability = 0.986; viability with camptothecin = 11.9; activity call = inactive
